Results reported in patent publication US20210382058A1, “PATIENT SELECTION FOR TREATMENT OF MYC POSITIVE CANCERS WITH INDENOISOQUINOLINES” (Purdue Research Foundation, priority 2020, published 2021).
Some of these results come from one statement about several compounds together.

Tested on: MYC protein expression in MCF-7 breast cancer cells
Assay: Western blotting of MYC protein level in MCF-7 cells
Type: cell-based, human
Details: MCF-7, 24 h, western blot
Experimental: MCF-7 cells were incubated with each compound at four concentrations (0.5, 1, 2, and 4 μM) for 24 hours, and the MYC protein levels were measured (FIG. 3A and FIGS. 12 A to 12 F).
Cells were incubated at 37° C. with 5% CO2.
The gels were cut into strips that contained the proteins of interest and transferred to nitrocellulose membrane (I323002, Invitrogen) using an iBlot 2 Dry Transfer Device (Invitrogen). Immunoblotting was carried out according to standard procedures using the ECL detection method. The membrane was hybridized with the following antibodies: monoclonal anti-MYC (1:1000 dilution; rabbit, Cell Signaling Technology), monoclonal anti-GAPDH (1:2000 dilution; rabbit, Cell Signaling Technology).

| SMILES | MYC inhibition level |
| --- | --- |
| COc1cnc2c(c1)C(=O)c1c-2n(CCCNC(C)C)c(=O)c2cc(F)ccc12 [Compound 5] | strong (strong inhibition, MYC expression inhibited at 0.5 to 1.0 μM) |
| COc1cnc2c(c1)C(=O)c1c-2n(CCCNC2=NCCS2)c(=O)c2cc([N+](=O)[O-])ccc12 [Compound 12] | strong (strong inhibition, MYC expression inhibited at 0.5 to 1.0 μM) |
